In PubChem BioAssay AID504327 (National Center for Advancing Translational Sciences (NCATS), 2011):
In all, about 390,000 compounds went through this assay and about 820 (0.21%) were called active. The shares of active, inactive and inconclusive entries below differ from those in the screen. The call rests on the fitted dose curve; in most records, active means well fitted inhibition curve with a large enough effect; inconclusive means small, poorly fitted or top-dose-only effect, or another doubt; inactive means no such curve, though single readings can be large or run the other way. A potency beside an inconclusive call is a rough fit, not a confirmed value.

Amino acid sequences for entries named in this document (tags omitted).
UniProt Q92830, whole entry, looked up: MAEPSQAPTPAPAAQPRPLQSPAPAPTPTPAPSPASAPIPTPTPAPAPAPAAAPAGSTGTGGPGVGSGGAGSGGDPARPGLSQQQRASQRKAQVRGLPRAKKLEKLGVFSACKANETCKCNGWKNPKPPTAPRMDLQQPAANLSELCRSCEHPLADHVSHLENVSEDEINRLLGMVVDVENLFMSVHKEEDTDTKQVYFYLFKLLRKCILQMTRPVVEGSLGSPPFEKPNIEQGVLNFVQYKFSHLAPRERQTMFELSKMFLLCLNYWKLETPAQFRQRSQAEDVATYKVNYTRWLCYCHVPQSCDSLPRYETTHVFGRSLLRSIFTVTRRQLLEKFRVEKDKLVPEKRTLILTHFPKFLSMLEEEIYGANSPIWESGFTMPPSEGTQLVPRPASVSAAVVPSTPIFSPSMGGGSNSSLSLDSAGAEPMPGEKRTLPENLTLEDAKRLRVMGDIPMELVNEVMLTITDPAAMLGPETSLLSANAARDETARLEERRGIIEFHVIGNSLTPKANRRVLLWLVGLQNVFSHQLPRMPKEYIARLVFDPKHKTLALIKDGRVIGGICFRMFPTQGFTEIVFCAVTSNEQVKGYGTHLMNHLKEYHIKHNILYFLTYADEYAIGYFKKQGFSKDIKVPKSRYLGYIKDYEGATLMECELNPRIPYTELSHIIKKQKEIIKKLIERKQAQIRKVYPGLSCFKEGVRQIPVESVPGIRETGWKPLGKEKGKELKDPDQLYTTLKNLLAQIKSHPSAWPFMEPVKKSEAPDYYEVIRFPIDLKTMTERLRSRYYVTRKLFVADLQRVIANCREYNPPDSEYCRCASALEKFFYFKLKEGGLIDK

Target: Histone acetyltransferase KAT2A (Homo sapiens) (UniProt Q92830)
Test: qHTS Assay for Inhibitors of GCN5L2
Conditions: GCN5L2 HAT assay, ThioGlo1 CoA-SH fluorescence; series mostly up to 58.9 µM
Outline: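 qHTS, 1536-well. 20nM enzyme, pH 7.5 HEPES/EDTA/Tween-20 buffer; 15 min compound preinc., RT. Start: 75uM H3(1-25), 70uM AcCoA, 50uM ThioGlo1. Read Ex340/Em540 at t=0 (autofluorescence flag) and t=20 min.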
Potency means the concentration at half of the fitted maximal effect.

| SMILES | Potency |
| --- | --- |
| Cc1c(C(=O)Nc2ccc(S(=O)(=O)Nc3ncccn3)cc2)oc2ccc(F)cc12 | inconclusive: 3.16 µM [inhibitor, partial curve] |
| CCN(CC)S(=O)(=O)c1cc(C(=O)OC)ccc1Cl | inconclusive: 39.8 µM [inhibitor, single point] |
| O=C(CSc1nc2ccc(S(=O)(=O)N3CCOCC3)cc2[nH]1)N1CCOCC1 | inactive |
| COc1ccc2[nH]c3c(c2c1)CCN1C(=O)C(CC(=O)NCc2ccco2)C[C@H](C(=O)N2CCCCC2)[C@@]31CCc1ccccc1 (stereo partly drawn) | inactive |
| C=CCN1C(=O)/C(=C2/Sc3ccccc3N2C)SC1=Nc1ccccc1C | inactive |
| COC(=O)c1ccccc1NC(=S)N(Cc1ccc2c(c1)OCO2)Cc1cc2cc(C)ccc2[nH]c1=O | inactive |
| CC(C)CN(Cc1c(O)ccc2ccccc12)CC(C)C | inactive |
| CCc1cccc(N2C(=O)N(CC(=O)NCc3cccc(OC)c3OC)c3ccccc3S2(=O)=O)c1 | inactive |
| N=c1c2c3c(sc2ncn1N)CCCC3 | inconclusive: 3.98 µM [inhibitor, single point] |
| Cc1cccc(-n2ncc3c(N(C)Cc4ccccc4)ncnc32)c1 | inconclusive: 8.91 µM [inhibitor, full curve, poor fit] |
| Cc1nn(C(=O)CCCC(=O)NCc2ccccc2)c2ccccc12 | inactive |
| CC(C)NC(=O)c1ccccc1NS(=O)(=O)c1ccc(Br)s1 | inconclusive: 39.8 µM [inhibitor, single point] |
| CCCC(=O)Nc1cc(C)c(NC(=O)c2ccccn2)cn1 | inconclusive: 0.708 µM [inhibitor, single point] |
| O=C(/C=C/c1ccccc1)Nc1cccc(S(=O)(=O)Nc2ccccc2F)c1 | inconclusive: 20 µM [inhibitor, partial curve] |
| CCN1C(=O)[C@H]2[C@@H](c3ccc(-c4ccc(F)cc4)c(OC)c3)N3CCCC[C@@]3(C(=O)OC)[C@H]2C1=O | inactive |
| COc1cccc(Cn2c(=O)c(CCc3ccccc3)nc3cnc(N4CCN(C)CC4)nc32)c1 | inactive |
| Cc1ccc(Cl)cc1N1CCN(C(=O)c2cc(S(=O)(=O)N3CCCC3)cn2C)CC1 | inactive |
| OCCCc1nc2n(n1)C(c1ccccc1Cl)C=C(c1cccs1)N2 (stereo not drawn) | inconclusive: 3.55 µM [inhibitor, full curve] |
| CC(C)(C)Nc1nc(Nc2ccc([N+](=O)[O-])cc2)nc(NC(C)(C)C)n1 | inconclusive: 0.141 µM [inhibitor, full curve, poor fit] |
| c1ccc(-c2cn3nc(-c4ccccc4)c(-c4ccccc4)nc3n2)cc1 | inconclusive: 0.708 µM [inhibitor, full curve, poor fit] |
| Nc1c(C(=O)N2CCCC2)sc2nc3c(cc12)CCCCCC3 | inactive |
| Cc1ccc2c(c1)N(C(=O)CCC(=O)NCCCN1CCOCC1)CC(C)O2 (stereo not drawn) | inconclusive: 39.8 µM [inhibitor, single point] |

| SMILES | Potency |
| --- | --- |
| CC(C)c1ccc(SCc2noc(C(=O)NCC3CCCO3)c2C(=O)O)cc1 (stereo not drawn) | inconclusive: 20 µM [inhibitor, partial curve] |
| Clc1ccc(NCc2ccsc2)cc1 | inconclusive: 39.8 µM [inhibitor, single point] |
| O=C(CSc1nccc(=O)[nH]1)NC1CCCc2ccccc21 (stereo not drawn) | inactive |
| Cc1cccc(C(C)Nc2ccc([N+](=O)[O-])cn2)c1 (stereo not drawn) | inconclusive: 3.98 µM [inhibitor, full curve] |
| CC1CCN(CC(=O)Nc2ccccc2C(=O)c2ccccc2)CC1 | inactive |
| Cc1ccc(S(=O)(=O)N2[C@@H](c3ccc(Cl)c(Cl)c3)C(C(=O)O)=C[C@H]2CC2CCCC2)cc1 | inconclusive: 31.6 µM [inhibitor, single point] |
| CCOC(=O)c1c(CN2CCCCC2)n(C)c2cc(Br)c(OC)cc12 | inconclusive: 7.08 µM [inhibitor, single point] |
| O=C(NCC1CCCO1)c1cc(-c2ccc(F)cc2)no1 (stereo not drawn) | inconclusive: 0.158 µM [inhibitor, full curve] |
| CN(C)c1ccc(-c2nc3cc(N)ccc3o2)cc1 | inconclusive: 39.8 µM [inhibitor, single point] |
| COc1ccc([C@H]2CC(=O)C=C(c3ccc(OC)nc3)C2)cc1 | inconclusive: 31.6 µM [inhibitor, single point] |
| C[C@@H]1O[C@@H](O[C@H]2[C@H](O)[C@@H](O)[C@H](Oc3c(-c4ccc(O)c(O)c4)oc4cc(O)cc(O)c4c3=O)O[C@@H]2CO)[C@H](O)[C@H](O)[C@H]1O | inactive |
| Cc1cccc(NC(=O)c2cc(NC(=O)C3CCCCC3C(=O)O)ccc2N2CCOCC2)c1 (stereo not drawn) | inconclusive: 0.224 µM [inhibitor, full curve, poor fit] |
| CCN=C(N/N=C/c1ccc([N+](=O)[O-])cc1)SC | inconclusive: 35.5 µM [inhibitor, single point] |
| O=C(c1ccc(CS(=O)c2cccc(Cl)c2)o1)N1CCOCC1 (stereo not drawn) | inconclusive: 5.62 µM [inhibitor, partial curve] |
| CCOC(=O)c1cc2c(=O)n3ccccc3nc2n(Cc2ccco2)c1=NC(=O)c1ccccc1Br | inconclusive: 39.8 µM [inhibitor, partial curve] |
| O=C(CSc1nc(NS(=O)(=O)c2ccccc2)cc(=O)[nH]1)Nc1ccc(F)cc1 | inconclusive: 25.1 µM [inhibitor, single point] |
| CN(C)CC(C)(C)CNS(=O)(=O)c1ccc(Cl)c(Cl)c1 | inactive |
| COc1cc(/C=C2\SC(N)=NC2=O)ccc1O | inconclusive: 31.6 µM [inhibitor, single point] |
| O=c1cc(COc2ccc(Cl)cc2Cl)nc2scc(-c3ccccc3)n12 | inconclusive: 28.2 µM [inhibitor, single point] |
| Clc1cccc(Cl)c1CSc1nnc(-c2sccc2-n2cccc2)o1 | inconclusive: 2.51 µM [inhibitor, single point] |
| OCC1(Cc2ccccc2)CCN(C2CCN(c3ccccc3F)CC2)CC1 | inconclusive: 39.8 µM [inhibitor, single point] |

For convenience, 2 of the compounds above:

| SMILES | Potency |
| --- | --- |
| COc1cc(/C=C2\SC(N)=NC2=O)ccc1O | inconclusive: 31.6 µM [inhibitor, single point] |
| O=c1cc(COc2ccc(Cl)cc2Cl)nc2scc(-c3ccccc3)n12 | inconclusive: 28.2 µM [inhibitor, single point] |
